# Measured values: publication doi:10.1101/2021.08.11.456030
# Chains of the proteins cited; added tags and fusions are not shown.
# UniProt O70133: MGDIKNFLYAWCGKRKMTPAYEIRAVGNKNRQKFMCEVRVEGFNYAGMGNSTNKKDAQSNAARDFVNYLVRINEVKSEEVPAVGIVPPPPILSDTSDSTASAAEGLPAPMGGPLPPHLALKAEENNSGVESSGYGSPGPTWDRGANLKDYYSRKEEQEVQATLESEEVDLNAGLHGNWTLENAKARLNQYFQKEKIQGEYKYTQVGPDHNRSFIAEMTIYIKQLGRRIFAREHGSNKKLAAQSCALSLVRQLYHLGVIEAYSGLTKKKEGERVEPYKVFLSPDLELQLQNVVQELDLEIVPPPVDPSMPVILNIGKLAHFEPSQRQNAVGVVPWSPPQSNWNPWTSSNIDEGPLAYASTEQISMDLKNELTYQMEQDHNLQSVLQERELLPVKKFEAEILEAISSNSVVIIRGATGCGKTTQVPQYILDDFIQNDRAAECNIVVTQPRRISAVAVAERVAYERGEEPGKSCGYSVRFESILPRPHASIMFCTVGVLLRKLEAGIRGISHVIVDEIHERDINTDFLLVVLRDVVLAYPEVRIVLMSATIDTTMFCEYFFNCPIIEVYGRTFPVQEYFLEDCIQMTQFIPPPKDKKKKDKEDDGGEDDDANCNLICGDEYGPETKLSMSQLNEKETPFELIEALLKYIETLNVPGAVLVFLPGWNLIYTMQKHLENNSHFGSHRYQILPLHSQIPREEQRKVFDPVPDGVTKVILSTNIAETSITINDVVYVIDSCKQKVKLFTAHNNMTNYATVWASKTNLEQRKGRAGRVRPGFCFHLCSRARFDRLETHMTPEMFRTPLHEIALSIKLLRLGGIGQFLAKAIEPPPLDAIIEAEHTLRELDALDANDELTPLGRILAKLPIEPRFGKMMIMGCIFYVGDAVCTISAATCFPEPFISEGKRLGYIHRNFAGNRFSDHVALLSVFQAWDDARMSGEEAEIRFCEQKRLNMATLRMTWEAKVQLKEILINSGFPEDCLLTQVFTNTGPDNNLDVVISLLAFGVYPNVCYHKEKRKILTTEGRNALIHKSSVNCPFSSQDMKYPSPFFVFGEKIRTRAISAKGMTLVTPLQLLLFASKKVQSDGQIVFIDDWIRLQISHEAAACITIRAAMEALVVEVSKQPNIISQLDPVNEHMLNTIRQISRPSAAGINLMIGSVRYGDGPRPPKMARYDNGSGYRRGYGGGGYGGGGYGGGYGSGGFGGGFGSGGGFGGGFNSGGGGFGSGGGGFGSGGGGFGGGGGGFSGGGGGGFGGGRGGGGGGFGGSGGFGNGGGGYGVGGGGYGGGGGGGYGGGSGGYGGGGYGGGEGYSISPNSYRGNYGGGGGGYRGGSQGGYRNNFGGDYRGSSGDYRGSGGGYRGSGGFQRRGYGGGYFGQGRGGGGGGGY
# UniProt Q60899: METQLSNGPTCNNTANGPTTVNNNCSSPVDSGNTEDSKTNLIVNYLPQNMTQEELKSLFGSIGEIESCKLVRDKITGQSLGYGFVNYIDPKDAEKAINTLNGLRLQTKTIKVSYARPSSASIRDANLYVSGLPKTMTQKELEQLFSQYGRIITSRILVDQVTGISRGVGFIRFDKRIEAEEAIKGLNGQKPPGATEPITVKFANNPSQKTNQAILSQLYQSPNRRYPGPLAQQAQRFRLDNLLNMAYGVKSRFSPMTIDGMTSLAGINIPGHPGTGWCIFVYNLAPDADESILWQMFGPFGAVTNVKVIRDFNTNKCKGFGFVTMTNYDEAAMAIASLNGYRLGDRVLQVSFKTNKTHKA
# UniProt P26369: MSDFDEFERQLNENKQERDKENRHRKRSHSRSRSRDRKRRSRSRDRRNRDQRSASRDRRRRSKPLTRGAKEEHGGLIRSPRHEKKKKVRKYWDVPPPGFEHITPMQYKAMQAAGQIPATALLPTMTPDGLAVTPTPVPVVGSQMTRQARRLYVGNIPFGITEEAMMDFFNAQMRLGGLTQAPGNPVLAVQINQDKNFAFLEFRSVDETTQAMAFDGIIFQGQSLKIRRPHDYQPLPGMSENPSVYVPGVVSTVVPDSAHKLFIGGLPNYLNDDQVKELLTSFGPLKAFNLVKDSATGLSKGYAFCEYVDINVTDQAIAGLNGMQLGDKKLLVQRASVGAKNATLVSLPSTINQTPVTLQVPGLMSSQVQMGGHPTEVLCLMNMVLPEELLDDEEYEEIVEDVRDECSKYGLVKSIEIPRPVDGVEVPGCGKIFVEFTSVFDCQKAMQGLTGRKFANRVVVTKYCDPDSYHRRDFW
# UniProt Q9CPN8: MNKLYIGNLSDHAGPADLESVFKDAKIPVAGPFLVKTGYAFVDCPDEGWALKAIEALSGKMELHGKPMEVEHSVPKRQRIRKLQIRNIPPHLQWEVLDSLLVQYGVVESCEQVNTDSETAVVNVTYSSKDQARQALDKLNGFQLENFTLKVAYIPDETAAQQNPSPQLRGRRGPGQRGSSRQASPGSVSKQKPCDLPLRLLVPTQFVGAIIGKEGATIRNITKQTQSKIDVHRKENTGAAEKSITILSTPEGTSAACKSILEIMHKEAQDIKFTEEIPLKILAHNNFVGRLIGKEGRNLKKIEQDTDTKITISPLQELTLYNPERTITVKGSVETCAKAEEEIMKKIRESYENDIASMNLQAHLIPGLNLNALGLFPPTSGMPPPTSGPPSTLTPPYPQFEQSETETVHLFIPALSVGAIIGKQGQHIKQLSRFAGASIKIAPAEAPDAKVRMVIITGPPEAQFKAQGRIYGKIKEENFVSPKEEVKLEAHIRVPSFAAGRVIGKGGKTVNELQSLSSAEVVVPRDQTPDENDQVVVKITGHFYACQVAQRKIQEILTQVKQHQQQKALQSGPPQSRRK
# UniProt O35286: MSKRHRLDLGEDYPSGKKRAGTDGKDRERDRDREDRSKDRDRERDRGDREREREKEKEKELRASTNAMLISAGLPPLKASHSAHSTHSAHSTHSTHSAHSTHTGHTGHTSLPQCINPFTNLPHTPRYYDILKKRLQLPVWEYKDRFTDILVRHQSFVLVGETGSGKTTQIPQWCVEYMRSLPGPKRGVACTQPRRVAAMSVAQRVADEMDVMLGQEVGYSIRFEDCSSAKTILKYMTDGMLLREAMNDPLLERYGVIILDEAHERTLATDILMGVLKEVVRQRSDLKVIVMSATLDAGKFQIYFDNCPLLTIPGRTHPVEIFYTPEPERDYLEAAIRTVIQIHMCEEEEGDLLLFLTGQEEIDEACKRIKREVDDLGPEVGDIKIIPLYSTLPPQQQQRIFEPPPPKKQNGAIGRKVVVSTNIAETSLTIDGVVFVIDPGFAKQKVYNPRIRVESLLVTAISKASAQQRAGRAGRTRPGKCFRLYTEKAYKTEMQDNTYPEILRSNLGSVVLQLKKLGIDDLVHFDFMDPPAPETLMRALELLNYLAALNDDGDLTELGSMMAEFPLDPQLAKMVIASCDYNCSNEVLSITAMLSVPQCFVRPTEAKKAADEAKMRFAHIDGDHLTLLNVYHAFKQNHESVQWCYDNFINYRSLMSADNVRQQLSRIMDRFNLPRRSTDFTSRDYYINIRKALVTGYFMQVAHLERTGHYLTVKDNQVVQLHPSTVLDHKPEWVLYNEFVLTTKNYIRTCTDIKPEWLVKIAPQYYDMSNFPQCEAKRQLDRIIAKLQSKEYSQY
# UniProt Q61584: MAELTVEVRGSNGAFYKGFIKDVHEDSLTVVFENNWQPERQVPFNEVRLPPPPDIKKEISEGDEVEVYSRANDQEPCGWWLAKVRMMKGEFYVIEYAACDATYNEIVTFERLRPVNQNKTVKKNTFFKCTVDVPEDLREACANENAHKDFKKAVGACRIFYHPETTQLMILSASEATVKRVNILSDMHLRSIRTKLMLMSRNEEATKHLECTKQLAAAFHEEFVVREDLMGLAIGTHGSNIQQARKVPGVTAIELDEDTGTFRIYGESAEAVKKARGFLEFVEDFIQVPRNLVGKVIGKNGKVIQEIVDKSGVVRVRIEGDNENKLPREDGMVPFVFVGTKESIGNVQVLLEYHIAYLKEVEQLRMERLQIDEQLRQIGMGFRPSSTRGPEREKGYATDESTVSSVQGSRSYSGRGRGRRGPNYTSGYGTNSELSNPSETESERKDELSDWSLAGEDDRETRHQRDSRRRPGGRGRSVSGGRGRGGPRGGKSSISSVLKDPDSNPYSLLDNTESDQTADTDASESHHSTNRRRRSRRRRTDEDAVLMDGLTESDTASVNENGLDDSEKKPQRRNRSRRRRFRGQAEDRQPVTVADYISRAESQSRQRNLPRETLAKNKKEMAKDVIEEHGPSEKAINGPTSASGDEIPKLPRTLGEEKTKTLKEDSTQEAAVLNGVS
# UniProt Q9EPU0: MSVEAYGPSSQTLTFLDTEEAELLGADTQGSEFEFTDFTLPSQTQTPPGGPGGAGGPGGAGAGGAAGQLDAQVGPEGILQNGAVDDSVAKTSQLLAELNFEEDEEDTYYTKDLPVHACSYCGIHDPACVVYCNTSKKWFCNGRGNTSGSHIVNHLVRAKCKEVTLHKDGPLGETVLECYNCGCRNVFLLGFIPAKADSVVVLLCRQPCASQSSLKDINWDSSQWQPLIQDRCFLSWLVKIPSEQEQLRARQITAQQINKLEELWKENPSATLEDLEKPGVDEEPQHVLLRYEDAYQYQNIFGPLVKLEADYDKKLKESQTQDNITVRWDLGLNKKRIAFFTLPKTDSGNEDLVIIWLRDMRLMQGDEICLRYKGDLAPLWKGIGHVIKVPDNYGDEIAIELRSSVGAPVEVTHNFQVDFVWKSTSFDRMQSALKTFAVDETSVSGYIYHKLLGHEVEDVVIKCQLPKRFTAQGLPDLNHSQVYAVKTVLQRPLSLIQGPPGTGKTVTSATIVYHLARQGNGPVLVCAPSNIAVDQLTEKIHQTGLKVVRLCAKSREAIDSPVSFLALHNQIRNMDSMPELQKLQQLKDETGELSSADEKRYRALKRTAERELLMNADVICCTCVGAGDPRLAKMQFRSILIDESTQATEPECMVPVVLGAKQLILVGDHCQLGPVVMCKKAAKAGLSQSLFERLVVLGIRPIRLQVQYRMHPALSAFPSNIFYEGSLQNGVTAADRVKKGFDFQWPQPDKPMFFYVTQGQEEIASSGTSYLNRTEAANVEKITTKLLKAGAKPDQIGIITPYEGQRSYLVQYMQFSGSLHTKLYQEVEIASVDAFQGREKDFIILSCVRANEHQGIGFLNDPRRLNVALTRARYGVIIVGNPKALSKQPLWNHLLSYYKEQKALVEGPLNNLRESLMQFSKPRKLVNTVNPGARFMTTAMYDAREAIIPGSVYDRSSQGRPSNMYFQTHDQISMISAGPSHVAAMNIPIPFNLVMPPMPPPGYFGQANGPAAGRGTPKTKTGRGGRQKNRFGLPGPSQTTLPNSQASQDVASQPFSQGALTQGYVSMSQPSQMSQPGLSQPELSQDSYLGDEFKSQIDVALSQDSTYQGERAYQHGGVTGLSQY
# UniProt O88477: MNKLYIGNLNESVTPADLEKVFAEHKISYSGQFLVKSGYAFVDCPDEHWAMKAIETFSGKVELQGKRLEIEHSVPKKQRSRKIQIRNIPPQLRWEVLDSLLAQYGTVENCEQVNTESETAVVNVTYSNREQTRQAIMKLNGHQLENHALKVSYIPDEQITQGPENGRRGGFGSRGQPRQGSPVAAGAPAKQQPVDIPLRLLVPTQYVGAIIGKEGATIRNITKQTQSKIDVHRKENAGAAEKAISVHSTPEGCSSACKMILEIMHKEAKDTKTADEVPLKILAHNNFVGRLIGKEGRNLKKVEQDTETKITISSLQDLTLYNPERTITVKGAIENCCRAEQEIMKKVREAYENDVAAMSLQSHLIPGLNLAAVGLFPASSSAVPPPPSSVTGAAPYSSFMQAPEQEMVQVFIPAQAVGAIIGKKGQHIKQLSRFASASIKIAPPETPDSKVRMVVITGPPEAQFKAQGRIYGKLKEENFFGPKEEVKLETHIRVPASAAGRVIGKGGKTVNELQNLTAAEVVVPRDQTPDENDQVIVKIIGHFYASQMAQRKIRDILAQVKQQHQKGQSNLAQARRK
# UniProt P70372: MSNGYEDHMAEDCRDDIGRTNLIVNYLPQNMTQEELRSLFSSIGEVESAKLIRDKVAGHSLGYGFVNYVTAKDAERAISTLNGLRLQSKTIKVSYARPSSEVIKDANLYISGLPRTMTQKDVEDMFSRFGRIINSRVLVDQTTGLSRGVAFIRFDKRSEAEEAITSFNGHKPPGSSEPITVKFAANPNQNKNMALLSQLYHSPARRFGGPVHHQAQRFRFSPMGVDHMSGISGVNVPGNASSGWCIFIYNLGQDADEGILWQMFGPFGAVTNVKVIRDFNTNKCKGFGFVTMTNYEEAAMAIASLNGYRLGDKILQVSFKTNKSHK
# Results are given in words; binding and its absence hold for the method and conditions named. Binding seen in cells or lysates may run through a third protein. Here binding means that the protein was enriched with, or labelled near, the bait; the list need not be complete.
# B1: ZCCHC3 (protein, UniProt Q8BPK2 1-400)
# chain: MATGGGAEEESQRGRPQLPLPARPVARVEEPEGVREKMGWAQVVKNLAEKKGDFREPRRRDETGSGASGGLGSPGGLATPNPGDFPPAARGDPKGRRRDPTGEASDAYRKKSASGAGDPSRRKKAEVTAAMATPARPGTTEDATERPLQDEPPAAGPGKGRFLVRICFQGDESACPTRDFVVGALILRSIGMDPDDIYAVIQIPGSREFDVSFRSAEKLALFLRVYEEKRELEDCWENFVVLGRSRSSLKTLFILFRNETVDVEDIVTWLKRHCDVLAVPVKVTDRFGIWTGEYKCEIELRQGEGGVRHLPGAFFLGAERGYSWYKGQPKTCFKCGSRTHMSGTCTQDRCFRCGEEGHLSPYCRKVIVCNLCGKRGHAFAQCPKAVHNSVTAQLTSVAGH
# B2: SF3B1 (protein, UniProt Q99NB9 1-1304)
# chain: MAKIAKTHEDIEAQIREIQGKKAALDEAQGVGLDSTGYYDQEIYGGSDSRFAGYVTSIAATELEDDDDDYSSSTSLLGQKKPGYHAPVALLNDIPQSTEQYDPFAEHRPPKIADREDEYKKHRRTMIISPERLDPFADGGKTPDPKMNARTYMDVMREQHLTKEEREIRQQLAEKAKAGELKVVNGAAASQPPSKRKRRWDQTADQTPGATPKKLSSWDQAETPGHTPSLRWDETPGRAKGSETPGATPGSKIWDPTPSHTPAGAATPGRGDTPGHATPGHGGATSSARKNRWDETPKTERDTPGHGSGWAETPRTDRGGDSIGETPTPGASKRKSRWDETPASQMGGSTPVLTPGKTPIGTPAMNMATPTPGHIMSMTPEQLQAWRWEREIDERNRPLSDEELDAMFPEGYKVLPPPAGYVPIRTPARKLTATPTPLGGMTGFHMQTEDRTMKSVNDQPSGNLPFLKPDDIQYFDKLLVDVDESTLSPEEQKERKIMKLLLKIKNGTPPMRKAALRQITDKAREFGAGPLFNQILPLLMSPTLEDQERHLLVKVIDRILYKLDDLVRPYVHKILVVIEPLLIDEDYYARVEGREIISNLAKAAGLATMISTMRPDIDNMDEYVRNTTARAFAVVASALGIPSLLPFLKAVCKSKKSWQARHTGIKIVQQIAILMGCAILPHLRSLVEIIEHGLVDEQQKVRTISALAIAALAEAATPYGIESFDSVLKPLWKGIRQHRGKGLAAFLKAIGYLIPLMDAEYANYYTREVMLILIREFQSPDEEMKKIVLKVVKQCCGTDGVEANYIKTEILPPFFKHFWQHRMALDRRNYRQLVDTTVELANKVGAAEIISRIVDDLKDEAEQYRKMVMETIEKIMGNLGAADIDHKLEEQLIDGILYAFQEQTTEDSVMLNGFGTVVNALGKRVKPYLPQICGTVLWRLNNKSAKVRQQAADLISRTAVVMKTCQEEKLMGHLGVVLYEYLGEEYPEVLGSILGALKAIVNVIGMHKMTPPIKDLLPRLTPILKNRHEKVQENCIDLVGRIADRGAEYVSAREWMRICFELLELLKAHKKAIRRATVNTFGYIAKAIGPHDVLATLLNNLKVQERQNRVCTTVAIAIVAETCSPFTVLPALMNEYRVPELNVQNGVLKSLSFLFEYIGEMGKDYIYAVTPLLEDALMDRDLVHRQTASAVVQHMSLGVYGFGCEDSLNHLLNYVWPNVFETSPHVIQAVMGALEGLRVAIGPCRMLQYCLQGLFHPARKVRDVYWKIYNSIYIGSQDALIAHYPRIYNDDKNTYIRYDLDYIL
# B3: DHX30 (protein, UniProt Q99PU8 1-1217)
# chain: MVTPVCNSSTWQPKDSSFLSWPEMFSLDSFRKDRTQHRQRQCKLPPPRLPPMCVNPAPGGTITRASRDLLKEFPQPKNLLNSVIGRALGISHAKDKLVYVHTNGPKKKKVTLHIKWPKSVEVEGYGSKKIDAERQAAAAACQLFKGWGLLGPRNELFDAAKYRVLADRFGSPADSWWRPEPTMPPTSWRQLNPENIRPGGPAGLSRSLGREEEEDEEEELEEGTIDVTEFLSMTQQDSHNPLRDSRGGSFEMTDDDSAIRALTQFPLPKNLLAKVIQIATSSSTAKNLMQFHTVGTKTKLATLTLLWPCPMTFVAKGRRKAEAENKAAALACKKLKSLGLVDRNNEPLTHAMYNLASLRELGETQRRPCTIQVPEPILRKIEAFLSHYPVDSSWISPELRLQSDDILPLGKDSGPLSDPITGKPYMPLSEAEEVRLSQSLLELWRRRGPIWQEAPQLPVDPHRDTILSAIEQHPVVVISGDTGCGKTTRIPQLLLERYVTEGRGARCNVIITQPRRISAVSVAQRVSHELGPSLRRNVGFQVRLESKPPARGGALLFCTVGILLRKLQSNPSLEGVSHVIVDEVHERDVNTDFLLILLKGLQRLNPALRLVLMSATGDNERFSRYFGGCPVIKVPGFMYPVKEHYLEDILAKLGKHQYPHRHRHHESEDECALDLDLVTDLVLHIDARGEPGGILCFLPGWQEIKGVQQRLQEALGMHESKYLILPVHSNIPMMDQKAIFQQPPLGVRKIVLATNIAETSITVNDIVHVVDSGLHKEERYDLKTKVSCLETVWVSRANVIQRRGRAGRCQSGFAYHLFPRSRLEKMVPFQVPEILRTPLENLVLQAKIHMPEKTAVEFLSKAVDSPNIKAVDEAVILLQEIGVLDQREYLTTLGQRLAHISTDPRLAKAIVLAAIFRCLHPLLVVVSCLTRDPFSSSLQNRAEVDKVKALLSHDSGSDHLAFVRAVAGWEEVLRWQDRTSRENYLEENLLYAPSLRFIHGLIKQFSENIYEAFLVGKPSDCTLPSAQCNEYSEEEELVKGVLMAGLYPNLIQVRQGKVTRQGKFKPNSVTYRTKSGNILLHKSTINREATRLRSRWLTYFMAVKSNGSVFVRDSSQVHPLAVLLLTDGDVHIRDDGRRATISLSDSDLLRLEGDSRTVRLLREFRRALGRMVERSLRSELAALPLSVQQEHGQLLALLAELLRGPCGSFDMRKTADD
# B4: SF3B3 (protein, UniProt Q921M3 1-1217)
# chain: MFLYNLTLQRATGISFAIHGNFSGTKQQEIVVSRGKILELLRPDPNTGKVHTLLTVEVFGVIRSLMAFRLTGGTKDYIVVGSDSGRIVILEYQPSKNMFEKIHQETFGKSGCRRIVPGQFLAVDPKGRAVMISAIEKQKLVYILNRDAAARLTISSPLEAHKANTLVYHVVGVDVGFENPMFACLEMDYEEADNDPTGEAAANTQQTLTFYELDLGLNHVVRKYSEPLEEHGNFLITVPGGSDGPSGVLICSENYITYKNFGDQPDIRCPIPRRRNDLDDPERGMIFVCSATHKTKSMFFFLAQTEQGDIFKITLETDEDMVTEIRLKYFDTVPVAAAMCVLKTGFLFVASEFGNHYLYQIAHLGDDDEEPEFSSAMPLEEGDTFFFQPRPLKNLVLVDELDSLSPILFCQIADLANEDTPQLYVACGRGPRSSLRVLRHGLEVSEMAVSELPGNPNAVWTVRRHIEDEFDAYIIVSFVNATLVLSIGETVEEVTDSGFLGTTPTLSCSLLGDDALVQVYPDGIRHIRADKRVNEWKTPGKKTIVKCAVNQRQVVIALTGGELVYFEMDPSGQLNEYTERKEMSADVVCMSLANVPPGEQRSRFLAVGLVDNTVRIISLDPSDCLQPLSMQALPAQPESLCIVEMGGTEKQDELGERGSIGFLYLNIGLQNGVLLRTVLDPVTGDLSDTRTRYLGSRPVKLFRVRMQGQEAVLAMSSRSWLSYSYQSRFHLTPLSYETLEFASGFASEQCPEGIVAISTNTLRILALEKLGAVFNQVAFPLQYTPRKFVIHPESNNLIIIETDHNAYTEATKAQRKQQMAEEMVEAAGEDERELAAEMAAAFLNENLPESIFGAPKAGNGQWASVIRVMNPIQGNTLDLVQLEQNEAAFSVAVCRFSNTGEDWYVLVGVAKDLILSPRSVAGGFVYTYKLVNNGEKLEFLHKTPVEEVPAAIAPFQGRVLIGVGKLLRVYDLGKKKLLRKCENKHIANYISGIQTIGHRVIVSDVQESFIWVRYKRNENQLIIFADDTYPRWVTTASLLDYDTVAGADKFGNICVVRLPPNTNDEVDEDPTGNKALWDRGLLNGASQKAEVIMNYHVGETVLSLQKTTLIPGGSESLVYTTLSGGIGILVPFTSHEDHDFFQHVEMHLRSEHPPLCGRDHLSFRSYYFPVKNVIDGDLCEQFNSMEPNKQKNVSEELDRTPPEVSKKLEDIRTRYAF
# Molecular target: T1, Moloney leukaemia virus 10 homologue (MOV10) (mouse (endogenous in mESCs)) (UniProt P23249)
# T1 sequence: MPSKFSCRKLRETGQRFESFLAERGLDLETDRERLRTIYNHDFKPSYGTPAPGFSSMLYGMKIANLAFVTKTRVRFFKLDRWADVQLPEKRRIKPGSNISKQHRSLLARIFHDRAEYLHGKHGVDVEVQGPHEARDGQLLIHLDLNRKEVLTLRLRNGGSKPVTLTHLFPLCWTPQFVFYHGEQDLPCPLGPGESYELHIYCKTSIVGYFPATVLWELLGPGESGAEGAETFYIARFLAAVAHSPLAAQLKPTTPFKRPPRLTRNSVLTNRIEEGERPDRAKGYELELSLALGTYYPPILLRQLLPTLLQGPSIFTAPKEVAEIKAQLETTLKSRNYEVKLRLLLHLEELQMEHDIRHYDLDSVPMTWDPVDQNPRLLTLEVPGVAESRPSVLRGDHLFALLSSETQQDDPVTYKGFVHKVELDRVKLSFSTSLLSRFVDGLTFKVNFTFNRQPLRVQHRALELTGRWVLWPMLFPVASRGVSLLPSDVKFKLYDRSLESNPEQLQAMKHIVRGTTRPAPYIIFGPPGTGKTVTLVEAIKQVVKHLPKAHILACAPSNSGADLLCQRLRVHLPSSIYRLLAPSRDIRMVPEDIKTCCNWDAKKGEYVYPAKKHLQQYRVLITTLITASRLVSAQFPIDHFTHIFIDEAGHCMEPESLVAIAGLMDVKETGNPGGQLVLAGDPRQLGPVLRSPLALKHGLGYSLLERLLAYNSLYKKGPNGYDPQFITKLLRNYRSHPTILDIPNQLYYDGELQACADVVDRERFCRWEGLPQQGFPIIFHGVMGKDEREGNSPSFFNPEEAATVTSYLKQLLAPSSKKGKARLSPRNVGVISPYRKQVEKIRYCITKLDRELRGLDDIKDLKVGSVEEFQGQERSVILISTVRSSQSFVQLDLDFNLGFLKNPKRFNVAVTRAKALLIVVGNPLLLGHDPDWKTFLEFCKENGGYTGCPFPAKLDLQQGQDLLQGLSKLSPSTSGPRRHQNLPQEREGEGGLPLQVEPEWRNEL
# Assay: affinity purification with mass spectrometry
row,Molecule,binding
1,DHX9 (from UniProt O70133 1-1380),binds
2,ELAVL2 (from UniProt Q60899 1-360),binds
3,EIF4A3 (from UniProt Q91VC3 1-411),binds
4,U2AF2 (from UniProt P26369 1-475),binds
5,DHX21 (mouse (endogenous in mESCs)),binds
6,TUT4 (from UniProt B2RX14 1-1644),binds
7,IGF2BP3 (from UniProt Q9CPN8 1-579),binds
8,DHX15 (from UniProt O35286 1-795),binds
9,FXR1 (from UniProt Q61584 1-677),binds
10,UPF1 (from UniProt Q9EPU0 1-1124),binds
11,PABPC1 (from UniProt P29341 1-636),binds
12,IGF2BP2 (from UniProt Q5SF07 1-592),binds
13,APOBEC3F (mouse (endogenous in mESCs)),binds
14,IGF2BP1 (from UniProt O88477 1-577),binds
15,AGO2 (from UniProt Q8CJG0 1-860),binds
16,ELAVL1 (from UniProt P70372 1-326),binds
17,B1,binds
18,B2,binds
19,B3,binds
20,B4,binds
